Measurements as given in article PMC9237094 (Scientific Reports, 2022).

Assay: peptide synthesis
Conditions: whole synthesis, 220 nm

Substance | final HPLC purity [%]
PEPTIDE1{H.[dW].A.W.[dF].K.G.G.A.A.V.A.P.A.A.A.R.M}$$$$V2.0 | 96.55
PEPTIDE1{H.[dW].A.W.[dF].K.[am]}$$$$V2.0 | 97.67

Strings that start with PEPTIDE1 are HELM notation: dots part the residues, brackets hold end groups and non-standard residues.
